Like-named read-outs stand apart in the source and are kept apart here. No constants are given. Whether binding was seen depends on the method and setting. In cells and extracts the contact can be indirect. A yes stands for co-enrichment or nearness to the bait. Other partners may have been found.
B1: MD2 (protein, UniProt Q9JHF9 19-160)
chain: EKQQWFCNSSDAIISYSYCDHLKFPISISSEPCIRLRGTNGFVHVEFIPRGNLKYLYFNLFISVNSIELPKRKEVLCHGHDDDYSFCRALKGETVNTSIPFSFEGILFPKGHYRCVAEAIAGDTEEKLFCLNFTIIHRRDVN

By UniProt entry, the sequences of proteins in these tests, tags left out. Residues count along the entry.
UniProt Q9QUK6, residues 26-835: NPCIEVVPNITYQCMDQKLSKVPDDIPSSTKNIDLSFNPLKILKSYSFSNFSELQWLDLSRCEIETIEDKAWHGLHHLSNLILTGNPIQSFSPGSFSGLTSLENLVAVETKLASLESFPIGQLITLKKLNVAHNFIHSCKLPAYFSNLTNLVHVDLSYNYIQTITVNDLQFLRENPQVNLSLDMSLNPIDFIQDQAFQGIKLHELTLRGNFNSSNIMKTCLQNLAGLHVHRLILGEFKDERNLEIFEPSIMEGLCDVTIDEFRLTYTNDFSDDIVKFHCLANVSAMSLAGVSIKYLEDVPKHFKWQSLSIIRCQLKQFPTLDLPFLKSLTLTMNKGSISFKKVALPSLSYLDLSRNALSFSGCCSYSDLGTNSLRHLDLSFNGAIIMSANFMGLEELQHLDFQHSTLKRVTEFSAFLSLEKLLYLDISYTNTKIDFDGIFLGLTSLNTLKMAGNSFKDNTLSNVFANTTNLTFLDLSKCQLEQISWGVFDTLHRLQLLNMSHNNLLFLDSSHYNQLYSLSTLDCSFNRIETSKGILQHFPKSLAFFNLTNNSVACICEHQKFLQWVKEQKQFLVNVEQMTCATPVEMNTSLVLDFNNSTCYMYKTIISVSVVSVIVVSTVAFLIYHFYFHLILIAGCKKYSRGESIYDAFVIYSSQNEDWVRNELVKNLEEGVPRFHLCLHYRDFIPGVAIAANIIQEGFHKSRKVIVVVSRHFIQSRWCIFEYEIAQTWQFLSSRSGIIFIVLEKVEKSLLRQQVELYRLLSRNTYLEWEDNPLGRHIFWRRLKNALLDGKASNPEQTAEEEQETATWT
UniProt E2JF22: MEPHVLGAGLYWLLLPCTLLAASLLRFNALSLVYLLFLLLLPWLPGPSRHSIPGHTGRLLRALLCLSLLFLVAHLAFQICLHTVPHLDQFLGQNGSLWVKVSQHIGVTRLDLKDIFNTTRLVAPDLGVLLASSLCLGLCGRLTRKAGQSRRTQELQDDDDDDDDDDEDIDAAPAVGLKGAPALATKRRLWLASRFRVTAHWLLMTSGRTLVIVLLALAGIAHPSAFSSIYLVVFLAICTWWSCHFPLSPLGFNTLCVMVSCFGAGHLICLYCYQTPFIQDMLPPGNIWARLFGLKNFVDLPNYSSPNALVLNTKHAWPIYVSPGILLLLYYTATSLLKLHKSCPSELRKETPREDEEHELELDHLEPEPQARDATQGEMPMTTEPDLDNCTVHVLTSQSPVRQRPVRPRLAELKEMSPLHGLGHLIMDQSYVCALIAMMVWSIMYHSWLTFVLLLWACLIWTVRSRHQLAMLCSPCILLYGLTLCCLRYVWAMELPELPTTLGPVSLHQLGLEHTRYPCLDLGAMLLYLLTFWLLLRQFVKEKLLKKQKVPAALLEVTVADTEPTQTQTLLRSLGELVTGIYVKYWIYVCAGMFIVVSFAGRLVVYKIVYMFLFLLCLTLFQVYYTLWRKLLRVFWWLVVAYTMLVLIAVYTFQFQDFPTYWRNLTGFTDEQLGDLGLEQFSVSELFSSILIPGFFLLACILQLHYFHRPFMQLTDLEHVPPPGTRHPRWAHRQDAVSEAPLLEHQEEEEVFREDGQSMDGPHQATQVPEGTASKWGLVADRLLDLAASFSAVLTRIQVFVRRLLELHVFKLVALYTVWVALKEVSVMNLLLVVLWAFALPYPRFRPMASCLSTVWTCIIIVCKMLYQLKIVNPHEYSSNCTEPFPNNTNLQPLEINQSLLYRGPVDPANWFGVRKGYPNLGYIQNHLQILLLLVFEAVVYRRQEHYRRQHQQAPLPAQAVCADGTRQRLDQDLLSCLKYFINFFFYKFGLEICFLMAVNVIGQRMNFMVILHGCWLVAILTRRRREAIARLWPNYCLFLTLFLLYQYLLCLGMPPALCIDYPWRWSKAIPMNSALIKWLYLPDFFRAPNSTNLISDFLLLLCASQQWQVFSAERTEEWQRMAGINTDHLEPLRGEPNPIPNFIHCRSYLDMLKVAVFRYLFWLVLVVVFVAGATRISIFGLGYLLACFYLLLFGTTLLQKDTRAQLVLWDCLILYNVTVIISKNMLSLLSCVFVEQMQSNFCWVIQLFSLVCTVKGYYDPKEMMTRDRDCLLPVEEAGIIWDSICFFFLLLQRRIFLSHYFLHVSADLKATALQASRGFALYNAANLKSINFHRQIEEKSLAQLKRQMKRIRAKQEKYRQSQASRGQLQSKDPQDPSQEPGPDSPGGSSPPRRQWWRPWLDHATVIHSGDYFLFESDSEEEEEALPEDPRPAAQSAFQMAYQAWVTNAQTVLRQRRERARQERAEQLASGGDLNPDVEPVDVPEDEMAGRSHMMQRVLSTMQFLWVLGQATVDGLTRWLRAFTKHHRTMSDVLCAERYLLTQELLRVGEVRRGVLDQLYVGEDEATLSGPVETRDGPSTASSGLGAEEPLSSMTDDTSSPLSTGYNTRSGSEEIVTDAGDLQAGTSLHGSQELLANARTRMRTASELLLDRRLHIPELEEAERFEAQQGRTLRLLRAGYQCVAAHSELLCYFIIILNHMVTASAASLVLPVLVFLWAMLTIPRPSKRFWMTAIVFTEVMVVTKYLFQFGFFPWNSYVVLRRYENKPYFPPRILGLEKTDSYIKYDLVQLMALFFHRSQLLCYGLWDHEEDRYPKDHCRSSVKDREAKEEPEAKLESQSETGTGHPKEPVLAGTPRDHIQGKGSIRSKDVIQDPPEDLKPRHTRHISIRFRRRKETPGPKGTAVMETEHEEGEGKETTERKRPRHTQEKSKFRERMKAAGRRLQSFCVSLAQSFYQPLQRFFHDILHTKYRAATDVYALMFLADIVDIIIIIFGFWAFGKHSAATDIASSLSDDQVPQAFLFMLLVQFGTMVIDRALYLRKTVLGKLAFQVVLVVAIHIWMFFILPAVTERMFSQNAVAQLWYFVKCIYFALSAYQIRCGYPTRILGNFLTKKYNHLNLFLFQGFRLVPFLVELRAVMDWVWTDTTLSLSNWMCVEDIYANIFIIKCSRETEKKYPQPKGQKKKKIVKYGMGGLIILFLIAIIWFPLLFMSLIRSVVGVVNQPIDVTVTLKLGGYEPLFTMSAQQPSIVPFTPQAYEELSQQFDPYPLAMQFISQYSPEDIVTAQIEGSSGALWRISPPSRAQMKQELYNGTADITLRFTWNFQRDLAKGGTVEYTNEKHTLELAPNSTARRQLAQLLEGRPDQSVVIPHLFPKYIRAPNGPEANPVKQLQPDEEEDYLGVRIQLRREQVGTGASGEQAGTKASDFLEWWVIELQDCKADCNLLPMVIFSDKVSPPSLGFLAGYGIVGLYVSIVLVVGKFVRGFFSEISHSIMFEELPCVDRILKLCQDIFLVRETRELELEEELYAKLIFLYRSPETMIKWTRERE

Experiments:
[1] = target: TLR4 (mouse (endogenous in BMDMs)) (UniProt Q9QUK6); assay: affinity purification with mass spectrometry; immunoprecipitation with TLR4 antibody from lysates of BMDMs untreated or treated with LPS (1 ug/ml), Yoda1 (5 uM) or both; mass spectrometry
[2] = target: TLR4 (mouse (endogenous in BMDMs)) (UniProt Q9QUK6); assay: as above; remark: listed apart in the source

| Molecule | binding [1] | binding [2] |
| --- | --- | --- |
| Piezo1 (from UniProt E2JF22 1-2547) | binds |  |
| B1 |  | binds |
